In all, about 33,000 sequences were measured (“E-score (-0.5 to 0.5)”: median about -0.0059, highest 2% from about 0.26 on). The list shows a part of the results.

The target in this assay is T1, Cin5 (UniProt P40917).
T1 sequence: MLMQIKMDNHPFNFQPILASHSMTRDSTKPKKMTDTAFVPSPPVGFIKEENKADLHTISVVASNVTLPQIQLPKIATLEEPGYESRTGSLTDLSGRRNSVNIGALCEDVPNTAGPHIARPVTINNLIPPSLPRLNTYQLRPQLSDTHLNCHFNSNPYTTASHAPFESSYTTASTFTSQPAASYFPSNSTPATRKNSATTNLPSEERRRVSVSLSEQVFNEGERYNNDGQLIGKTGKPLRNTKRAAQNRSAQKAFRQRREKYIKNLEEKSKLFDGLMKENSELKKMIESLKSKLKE
The assay can be described thus: PBM E-score (8-mer binding enrichment) (E-score (-0.5 to 0.5)); higher = stronger / more preferred TF binding. The note with it: protein concentration: 100 nM; construct: GST-full length. The method, boiled down:
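Yeast transcription factors carrying a GST tag, as full-length proteins or DNA-binding domains, were produced by PURExpress in vitro transcription/translation. About 100-200 nM protein was applied to universal all-10-mer Agilent arrays, double-stranded by primer extension on fresh or once-stripped slides. Bound protein was detected with fluorescent anti-GST, and scans were normalised with masliner. The Universal PBM Analysis Suite gave each ungapped eight-base word, pooled with its reverse complement, an E-score, a modified Wilcoxon-Mann-Whitney statistic.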
As for CAGTGGGA, the “PBM E-score” value is -0.0471. The value for CCAGTCGA was -0.153; that for AATCGGAT was 0.231. On to GGGAACGA, for which the “PBM E-score” value was -0.166. In the case of AGTCTTCG it was -0.26; in that of GATCTACA, 0.0592; in that of ACAGACCT, 0.0646.

With ACGGTTGA, the “PBM E-score” value is 0.0263.

Turning to AGTACCCG, the “PBM E-score” value was -0.0806. Take CAAAGGTC: the “PBM E-score” value is -0.166.

Take AAAATTCA: the “PBM E-score” value stood at 0.207. For ACCCTGGA, the “PBM E-score” value was -0.243. Turning to AGGGCAGA, the “PBM E-score” value was -0.179. With TCTACCAA, the “PBM E-score” value was found to be 0.0398. The value for ATCGAGCG was 0.0899; that for CCCTGTCA was -0.149. On to CGAACCAG, for which the “PBM E-score” value worked out at 0.11. The value for GGTTGTTA was 0.151. The value for AATGCAAT was -0.0436. Take TAAGTATA: the “PBM E-score” value was 0.204. In the case of ATCACCGA it was 0.0464; in that of ATAGACCA, 0.0762. In the case of TCCCCAGA it was 0.0124; in that of GCGAGTAA, 0.143. The value for CATTGCGC was 0.122; that for GGCACCAC was -0.18.

For the sequence AATTCCCT, the “PBM E-score” value was -0.12. The value for CAAGCTCC was -0.241; that for AACTGTGC was -0.142. The value for GTGCACTA was -0.0155; that for CACTAGTC was -0.0528. On to GCTGTCAA, for which the “PBM E-score” value is -0.136. As to AAGGAAGG, the “PBM E-score” value was -0.115. In the case of TCAGAACA it was 0.0894; in that of CCCACGGG, -0.229; in that of AAGTGAGT, 0.0146. The value for CGGTAAGA was 0.0466. In the case of ACCAGTGC it was -0.287; in that of AGTAATAC, 0.2.

On to ACCTCTAG, for which the “PBM E-score” value is -0.0989.

AAAGTAAC: the “PBM E-score” value amounted to 0.166.

For the sequence GGCGCAAC, the “PBM E-score” value was -0.055. Consider AGTGAATA, for which the “PBM E-score” value is 0.0861. In the case of ACGCCCAA it was -0.00809; in that of CGGCTGGA, -0.111; in that of AACACACC, 0.099. As to ATATTGCC, the “PBM E-score” value is 0.111.

Regarding ACAAAGTA, the “PBM E-score” value is 0.0268. The value for AGTACATC was 0.0156.

In the case of CGACAGTA, the “PBM E-score” value stood at 0.0632. AGGCGCCC: the “PBM E-score” value is -0.234. Take CGTCATAC: the “PBM E-score” value was 0.189. For the sequence GAGAGAGA, the “PBM E-score” value was found to be 0.0106.

GCCTTTAA: the “PBM E-score” value was -0.107. In the case of AATTCGGC it was -0.0241; in that of AGACAACT, 0.189.

As for CTGCGCGA, the “PBM E-score” value was -0.079.

For ATATGTGG, the “PBM E-score” value is 0.142. Turning to GCTTCGAA, the “PBM E-score” value was -0.00828.

Consider CTTCAGGC, for which the “PBM E-score” value is -0.19. As to CAAGGGTG, the “PBM E-score” value was -0.166.

Turning to GAGGTGTA, the “PBM E-score” value is -0.0397. In the case of CTAGAGAG it was -0.244. In the case of CTACCGTC it was -0.105. The value for GGAACGAA was 0.0662; that for ACCCCTTA was -0.162; that for GTGTAAGA was 0.0309. As for AACGGATC, the “PBM E-score” value is 0.24. With CGATTAGC, the “PBM E-score” value came out at 0.0872. The value for ATCATTCA was 0.187; that for CGCTAGAG was -0.139. In the case of TAAGGTAA it was 0.205.

Regarding GCTGCAGC, the “PBM E-score” value is -0.00142. Take GCGGATTA: the “PBM E-score” value worked out at 0.225. In the case of CGGGTTAC it was 0.0429.

For the sequence ACTTTGCT, the “PBM E-score” value was -0.00495. The value for CCCGCGTC was 0.0801. The value for TCCTTTAA was -0.0313; that for GAGTAGCC was -0.15. Consider CGAGTGAC, for which the “PBM E-score” value is -0.0844.

On to GCGTTACC, for which the “PBM E-score” value is -0.111. With CCGCGAGC, the “PBM E-score” value was -0.139. In the case of GGGAGACA it was -0.0654; in that of AATGTGCC, -0.124; in that of GTGTCGCA, -0.0707.

Turning to GCGACACA, the “PBM E-score” value came to 0.0581. In the case of CACCAGTC it was -0.21; in that of ATCGTAGG, -0.107; in that of ATATAATG, 0.21. In the case of ACTGTGGG it was -0.0885; in that of AGATTGCA, -0.0174; in that of CCGGGCAA, -0.092. In the case of CGTAGATA it was 0.0684; in that of AGTGAAGC, -0.0382; in that of AAGGGGGC, -0.242.

Regarding AGCTGAAC, the “PBM E-score” value is -0.125. For AAATCTGG, the “PBM E-score” value was found to be 0.0167. GGTAAACA: the “PBM E-score” value worked out at 0.079.

Consider AAGTAAGG, for which the “PBM E-score” value was 0.069. In the case of AAAGCATC it was 0.134; in that of TACTCGAA, -0.0449; in that of AGTTCCCC, -0.116.

In the case of AATCGACC, the “PBM E-score” value came to 0.147. In the case of ATGGGGAA it was 0.186; in that of GTGATCAC, -0.106; in that of AATGGGTA, 0.16. In the case of GCCCCTCC it was -0.0369; in that of CCCAGTAC, -0.116; in that of CCTGCATA, -0.0919. In the case of AGGACTTA it was -0.221.

For the origin of these results see the supplement of paper PMC3334620.
